Here are results for one compound from patent US20250049741A1, “COMPOSITION FOR PREVENTING OR TREATING ALZHEIMER'S DISEASE COMPRISING PHOSPHOLIPASE C ACTIVATOR AS AN ACTIVE INGREDIENT” (Korea University Research and Business Foundation, priority 2021, published 2025).

Experiment [1] relates to hippocampal CA3-CA1 excitatory synapses. The experiment can be described thus: S-eCB mobilization induced spike timing-dependent potentiation (tLTP) protocol, EPSP slope. It is filed as cell-based, Sprague-Dawley rats. The settings on record: DMSO-treated rat hippocampal slices; D-AP5 50 μM or AM251 3 μM. As for the experimental part:
Soluble AβO was prepared according to a previous study (BMC Biol. 2020; 18(1):7). Specifically, Aβ1-42 (Aβ) and a scrambled form of Aβ as a control peptide were purchased in powder form. Aβ and scrambled Aβ were dissolved for monomerization in 1,1,1,3,3,3-hexafluoro-2-propanol (HFIP, Sigma Aldrich, USA) at a final concentration of 1 mM, and the solution was incubated for 90 minutes. After the HFIP was evaporated, the remaining thin and clear film of Aβ or scrambled Aβ was dissolved in dimethyl sulfoxide (DMSO, Sigma Aldrich, USA) to prepare 5 mM Aβ or scrambled Aβ stocks, which were aliquoted and frozen at −20° C. Aβ or scrambled Aβ stocks were thawed and diluted to 100 μM in artificial cerebrospinal fluid (ACSF). Thereafter, Aβ or scrambled Aβ stocks were incubated for oligomerization for 18 hours. The final AβO or scrambled AβO stock solution was diluted to a final concentration of 200 nM in 31.2 ml of ACSF, and rat hippocampal slices were treated with the stock solution for 20 minutes in a recovery chamber before measurement of brain signals. In control experiments for normal brain conditions using a vehicle, rat hippocampal slices were treated with 0.004% DMSO in ACSF. […]

In experiment [2] the test system is CA1 PCs in rat hippocampal slices. The experiment can be described thus: Ex vivo eCB / S-eCB mobilization protocol: eIPSC amplitudes by whole-cell voltage-clamp. Type of experiment: cell-based, Sprague-Dawley rats. The conditions noted are these: AM251 3 μM; DMSO-treated rat hippocampal slices. The text has this:
To test the acute effect of AβO on hippocampal S-eCB mobilization, hippocampal slices from Sprague-Dawley rats (SD, 2 to 3 weeks old, DaeHan Biolink, Co., Ltd., Korea) were used. Male and female rats were used in all in vitro experiments. To test the chronic effect of AβO on hippocampus-dependent memory impairments caused by amyloidosis, the 5XFAD mouse model (6 to 7 months old, #34840-JAX, Jackson Laboratory, USA), which is a mouse model of Alzheimer's disease that mimics AβO depositions, was used. C57BL/6 mice (6 to 7 months old, KOATECH, Korea) were used as wild type (WT) control mice for 5XFAD mice. Male 5XFAD and C57BL/6 mice were used for all in vivo behavioral experiments. The 5XFAD mouse genotypes were identified by polymerase chain reaction (PCR) using DNA extracted from the tails of the mice. […]
To quantify eCB mobilization, the changes in eCB mobilization-induced Schaffer collateral (SC) nerve bundle stimulation-evoked inhibitory postsynaptic current (eIPSC) amplitudes were measured in CA1 PCs through the whole-cell voltage-clamp technique. […] Electrical stimulation pulses of 200 to 400 μA amplitudes (20 to 40 μs) were generated using a constant current stimulator (model DS3, Digitimer Ltd., UK). eIPSCs were recorded in CA PCs every 1 second while maintaining the membrane potential at −70 mV.

For `Cc1c(C(=O)NN2CCCCC2)nn(-c2ccc(Cl)cc2Cl)c1-c1ccc(I)cc1` [AM251], in experiment [1], the “mGluR5-mediated LTD in the presence of antagonist” value is “induced in both the test and control pathways”; the “tLTP induction (EPSP slope, test pathway), effect of antagonist” value is given as “completely blocked”. The “effect on suppression of eIPSC amplitudes by DHPG puff with 1 Hz neural spike trains (S-eCB mobilization)” value in experiment [2] was “completely blocked”.
